Values quoted from earlier work as cited in patent US10577634B2, “Bioconversion process for producing nylon-7, nylon-7,7 and polyesters” (INVISTA North America S.A.R.L., priority 2011, dated 2020).
At least one structure is not confirmed: it was looked up by name or label, or the drawing left a doubt.

System: PauA catabolic pimeloyl-CoA ligase
Conditions: substrate accepted by PauA, pimelate = 100%; cited from earlier work

SMILES: O=C(O)CCCCCCCC(=O)O [azelate]
- relative activity: 18%
